Test results published in the supplement of paper PMC10032668.
This is one part of the list. Only hits are listed; about a third recur on repeated control peptides.

Chains of the proteins cited; added tags and fusions are not shown. Lines headed by an entry give the natural chain unless they say otherwise; changes in a name come on top.
A2M, P01023, UniProt P01023, whole entry: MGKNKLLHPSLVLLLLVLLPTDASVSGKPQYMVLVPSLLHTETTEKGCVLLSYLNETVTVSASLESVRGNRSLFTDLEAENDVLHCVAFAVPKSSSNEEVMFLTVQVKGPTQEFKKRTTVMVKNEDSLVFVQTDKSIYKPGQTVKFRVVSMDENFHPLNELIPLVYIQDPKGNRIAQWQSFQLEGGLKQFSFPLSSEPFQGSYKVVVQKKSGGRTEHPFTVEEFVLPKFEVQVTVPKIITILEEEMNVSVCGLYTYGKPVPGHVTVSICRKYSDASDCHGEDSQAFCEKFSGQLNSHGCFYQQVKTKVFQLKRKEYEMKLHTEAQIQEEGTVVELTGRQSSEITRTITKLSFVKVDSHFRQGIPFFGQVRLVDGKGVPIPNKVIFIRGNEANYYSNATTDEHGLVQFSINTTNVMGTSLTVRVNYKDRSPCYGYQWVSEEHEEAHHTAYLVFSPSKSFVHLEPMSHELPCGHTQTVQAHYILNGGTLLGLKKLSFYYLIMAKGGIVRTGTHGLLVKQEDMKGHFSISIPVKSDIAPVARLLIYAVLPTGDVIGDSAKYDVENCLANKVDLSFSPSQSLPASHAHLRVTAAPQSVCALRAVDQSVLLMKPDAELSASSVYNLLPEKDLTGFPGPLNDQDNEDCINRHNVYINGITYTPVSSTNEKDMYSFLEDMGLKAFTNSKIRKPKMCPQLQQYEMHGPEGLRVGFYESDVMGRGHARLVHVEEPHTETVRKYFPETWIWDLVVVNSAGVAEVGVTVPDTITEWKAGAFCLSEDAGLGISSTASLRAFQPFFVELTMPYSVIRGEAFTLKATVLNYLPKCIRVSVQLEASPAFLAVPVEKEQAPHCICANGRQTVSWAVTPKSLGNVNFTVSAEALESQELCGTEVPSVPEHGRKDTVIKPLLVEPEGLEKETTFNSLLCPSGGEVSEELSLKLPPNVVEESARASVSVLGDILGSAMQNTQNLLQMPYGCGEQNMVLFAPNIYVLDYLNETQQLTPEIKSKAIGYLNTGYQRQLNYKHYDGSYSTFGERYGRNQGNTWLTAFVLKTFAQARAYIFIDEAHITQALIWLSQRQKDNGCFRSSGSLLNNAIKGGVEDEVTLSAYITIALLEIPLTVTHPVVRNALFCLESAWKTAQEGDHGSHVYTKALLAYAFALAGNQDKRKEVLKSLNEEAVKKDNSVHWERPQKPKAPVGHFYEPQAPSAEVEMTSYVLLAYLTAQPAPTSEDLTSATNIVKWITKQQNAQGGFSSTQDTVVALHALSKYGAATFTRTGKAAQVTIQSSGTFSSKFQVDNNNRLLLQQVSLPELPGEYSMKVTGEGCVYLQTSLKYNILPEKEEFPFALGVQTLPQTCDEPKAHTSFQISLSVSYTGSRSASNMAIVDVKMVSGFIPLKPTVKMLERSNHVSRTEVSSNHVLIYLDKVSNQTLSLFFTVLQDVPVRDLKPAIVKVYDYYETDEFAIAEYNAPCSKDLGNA
NCL, P19338, UniProt P19338, whole entry: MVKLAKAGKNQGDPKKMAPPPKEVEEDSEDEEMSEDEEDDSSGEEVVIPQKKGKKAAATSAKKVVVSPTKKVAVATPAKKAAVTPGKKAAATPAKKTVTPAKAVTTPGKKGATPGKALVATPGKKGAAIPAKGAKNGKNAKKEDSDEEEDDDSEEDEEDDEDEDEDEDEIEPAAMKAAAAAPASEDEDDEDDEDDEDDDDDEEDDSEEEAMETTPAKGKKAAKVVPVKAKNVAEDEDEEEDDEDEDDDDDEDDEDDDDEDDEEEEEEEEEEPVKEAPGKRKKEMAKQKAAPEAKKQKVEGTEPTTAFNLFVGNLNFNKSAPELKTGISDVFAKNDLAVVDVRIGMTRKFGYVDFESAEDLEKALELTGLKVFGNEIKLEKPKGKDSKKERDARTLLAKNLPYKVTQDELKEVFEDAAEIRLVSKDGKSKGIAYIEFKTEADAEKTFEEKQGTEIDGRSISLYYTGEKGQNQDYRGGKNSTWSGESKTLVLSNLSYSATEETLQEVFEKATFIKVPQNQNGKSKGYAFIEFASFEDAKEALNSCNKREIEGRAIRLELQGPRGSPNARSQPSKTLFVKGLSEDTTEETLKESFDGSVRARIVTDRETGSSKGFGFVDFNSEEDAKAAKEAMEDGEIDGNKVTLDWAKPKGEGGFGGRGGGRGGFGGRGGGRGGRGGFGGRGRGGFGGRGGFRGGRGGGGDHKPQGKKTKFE
DHX9, Q08211, UniProt Q08211, whole entry: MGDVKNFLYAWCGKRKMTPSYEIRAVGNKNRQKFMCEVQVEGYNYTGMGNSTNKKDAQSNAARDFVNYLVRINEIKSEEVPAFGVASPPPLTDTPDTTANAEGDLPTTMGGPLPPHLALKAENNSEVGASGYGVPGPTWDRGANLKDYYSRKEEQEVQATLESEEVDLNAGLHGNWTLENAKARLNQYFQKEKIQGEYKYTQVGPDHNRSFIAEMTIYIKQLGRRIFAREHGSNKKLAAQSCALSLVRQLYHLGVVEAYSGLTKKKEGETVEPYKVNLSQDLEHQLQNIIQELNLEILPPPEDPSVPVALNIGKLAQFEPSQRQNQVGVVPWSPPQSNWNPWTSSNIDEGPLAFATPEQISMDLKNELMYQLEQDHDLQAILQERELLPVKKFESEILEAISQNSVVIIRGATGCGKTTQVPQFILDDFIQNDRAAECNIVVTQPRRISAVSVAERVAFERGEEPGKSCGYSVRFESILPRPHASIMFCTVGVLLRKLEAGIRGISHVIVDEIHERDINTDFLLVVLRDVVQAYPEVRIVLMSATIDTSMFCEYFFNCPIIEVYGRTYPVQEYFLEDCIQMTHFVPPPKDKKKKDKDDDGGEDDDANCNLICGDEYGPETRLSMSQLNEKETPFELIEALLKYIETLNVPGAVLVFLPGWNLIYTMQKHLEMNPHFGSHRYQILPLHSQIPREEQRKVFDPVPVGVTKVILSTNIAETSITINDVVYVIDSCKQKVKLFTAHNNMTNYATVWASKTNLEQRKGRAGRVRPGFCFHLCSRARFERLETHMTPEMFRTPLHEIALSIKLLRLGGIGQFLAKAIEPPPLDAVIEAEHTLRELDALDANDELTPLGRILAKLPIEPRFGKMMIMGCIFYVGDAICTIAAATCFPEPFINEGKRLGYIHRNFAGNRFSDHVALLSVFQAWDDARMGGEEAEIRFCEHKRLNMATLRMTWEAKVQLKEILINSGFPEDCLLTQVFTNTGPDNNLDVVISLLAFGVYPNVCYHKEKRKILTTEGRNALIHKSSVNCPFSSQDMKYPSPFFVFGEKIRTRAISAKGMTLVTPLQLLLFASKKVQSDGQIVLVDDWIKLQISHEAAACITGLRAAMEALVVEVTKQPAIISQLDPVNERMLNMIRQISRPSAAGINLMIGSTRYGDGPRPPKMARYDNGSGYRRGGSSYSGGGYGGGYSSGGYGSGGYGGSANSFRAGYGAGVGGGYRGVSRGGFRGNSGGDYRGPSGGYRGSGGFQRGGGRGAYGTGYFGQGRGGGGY
POLE, Q07864, UniProt Q07864, whole entry: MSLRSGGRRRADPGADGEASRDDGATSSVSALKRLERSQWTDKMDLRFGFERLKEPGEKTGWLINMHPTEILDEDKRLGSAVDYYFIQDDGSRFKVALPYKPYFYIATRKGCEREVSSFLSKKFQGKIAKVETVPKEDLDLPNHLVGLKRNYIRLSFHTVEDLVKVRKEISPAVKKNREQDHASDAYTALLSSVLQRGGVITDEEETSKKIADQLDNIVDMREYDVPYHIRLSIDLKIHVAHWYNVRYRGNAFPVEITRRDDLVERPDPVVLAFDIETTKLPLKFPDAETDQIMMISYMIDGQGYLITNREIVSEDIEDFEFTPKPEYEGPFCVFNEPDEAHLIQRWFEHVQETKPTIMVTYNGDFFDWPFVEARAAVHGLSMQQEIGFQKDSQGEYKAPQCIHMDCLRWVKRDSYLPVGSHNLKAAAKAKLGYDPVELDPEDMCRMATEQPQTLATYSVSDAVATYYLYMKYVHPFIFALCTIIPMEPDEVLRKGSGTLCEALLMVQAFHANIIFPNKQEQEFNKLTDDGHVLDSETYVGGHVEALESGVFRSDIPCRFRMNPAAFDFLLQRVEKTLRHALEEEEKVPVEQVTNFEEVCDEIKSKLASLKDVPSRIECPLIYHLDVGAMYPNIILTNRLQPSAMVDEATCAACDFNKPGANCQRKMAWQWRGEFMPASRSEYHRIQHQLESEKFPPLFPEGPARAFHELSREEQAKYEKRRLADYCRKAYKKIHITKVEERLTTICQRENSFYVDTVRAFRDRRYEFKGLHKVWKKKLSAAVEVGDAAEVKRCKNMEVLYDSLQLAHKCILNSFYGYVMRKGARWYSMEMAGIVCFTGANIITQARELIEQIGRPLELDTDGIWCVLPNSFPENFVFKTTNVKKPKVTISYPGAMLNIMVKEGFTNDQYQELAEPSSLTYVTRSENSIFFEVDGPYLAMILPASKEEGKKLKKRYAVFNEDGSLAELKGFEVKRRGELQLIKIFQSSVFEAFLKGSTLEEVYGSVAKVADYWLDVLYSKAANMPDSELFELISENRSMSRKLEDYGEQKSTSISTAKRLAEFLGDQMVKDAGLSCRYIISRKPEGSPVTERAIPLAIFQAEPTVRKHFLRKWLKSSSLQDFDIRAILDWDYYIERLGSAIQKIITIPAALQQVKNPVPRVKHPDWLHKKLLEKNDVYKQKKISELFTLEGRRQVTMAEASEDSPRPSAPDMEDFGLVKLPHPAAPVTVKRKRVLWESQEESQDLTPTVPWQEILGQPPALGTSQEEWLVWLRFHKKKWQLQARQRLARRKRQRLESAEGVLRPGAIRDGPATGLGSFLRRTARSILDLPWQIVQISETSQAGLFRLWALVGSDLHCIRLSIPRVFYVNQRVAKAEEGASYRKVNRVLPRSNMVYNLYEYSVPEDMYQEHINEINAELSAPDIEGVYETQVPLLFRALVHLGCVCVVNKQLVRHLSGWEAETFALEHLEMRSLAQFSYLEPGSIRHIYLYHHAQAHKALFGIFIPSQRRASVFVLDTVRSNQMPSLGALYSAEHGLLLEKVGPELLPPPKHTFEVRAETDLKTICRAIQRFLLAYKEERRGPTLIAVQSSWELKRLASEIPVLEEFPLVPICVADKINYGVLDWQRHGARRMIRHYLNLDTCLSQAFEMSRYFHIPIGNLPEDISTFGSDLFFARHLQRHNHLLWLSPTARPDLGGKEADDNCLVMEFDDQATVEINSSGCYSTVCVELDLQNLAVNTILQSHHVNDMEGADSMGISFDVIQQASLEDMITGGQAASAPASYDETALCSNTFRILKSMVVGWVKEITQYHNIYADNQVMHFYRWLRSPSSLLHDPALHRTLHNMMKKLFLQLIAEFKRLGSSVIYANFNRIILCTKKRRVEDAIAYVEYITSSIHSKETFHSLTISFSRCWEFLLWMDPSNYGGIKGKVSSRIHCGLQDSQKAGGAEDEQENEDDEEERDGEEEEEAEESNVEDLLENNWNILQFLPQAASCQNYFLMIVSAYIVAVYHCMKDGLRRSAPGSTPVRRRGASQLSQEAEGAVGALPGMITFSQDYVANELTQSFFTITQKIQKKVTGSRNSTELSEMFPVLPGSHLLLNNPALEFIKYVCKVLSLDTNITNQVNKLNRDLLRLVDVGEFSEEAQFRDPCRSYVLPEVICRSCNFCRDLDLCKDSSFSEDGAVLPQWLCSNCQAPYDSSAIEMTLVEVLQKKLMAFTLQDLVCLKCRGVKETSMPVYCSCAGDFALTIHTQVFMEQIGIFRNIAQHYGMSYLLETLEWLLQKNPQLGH

Assays:
Test in all cases: PRISMA enrichment of interactor (LFQ) in peptide spot vs all other peptide spots (log2 fold change); higher = stronger / more specific binding of the interactor to the peptide
A2M, P01023 = target: A2M, P01023
Protocol: (§1)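 PRISMA: 15-aa overlapping tiles (offset 8 aa) of 60 microproteins, plus SOS1/GLUT1 control peptides, were spot-synthesized on cellulose membranes in triplicate. Membranes were incubated with benzonase-treated HEK293T lysate, and bound proteins were identified by LC-MS/MS with LFQ. Enrichment is the log2 fold change of each protein in one spot versus all other spots. Only interactors passing the significance cutoff are listed.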

AAR2, Q9Y312 = target: AAR2, Q9Y312
Protocol: as §1

ACSL3, O95573 = target: ACSL3, O95573
Protocol: as §1

AFF3, P51826 = target: AFF3, P51826
Protocol: as §1

ALG1, Q9BT22 = target: ALG1, Q9BT22
Protocol: as §1

CDC73, Q6P1J9 = target: CDC73, Q6P1J9
Protocol: as §1

CEBPZ, Q03701 = target: CEBPZ, Q03701
Protocol: as §1

CYC1, P08574 = target: CYC1, P08574
Protocol: as §1

GRPEL1, Q9HAV7 = target: GRPEL1, Q9HAV7
Protocol: as §1

LYPLAL1, Q5VWZ2 = target: LYPLAL1, Q5VWZ2
Protocol: as §1

MTPAP, Q9NVV4 = target: MTPAP, Q9NVV4
Protocol: as §1

NCL, P19338 = target: NCL, P19338
Protocol: as §1

NEK7, Q8TDX7 = target: NEK7, Q8TDX7
Protocol: as §1

ORC2, Q13416 = target: ORC2, Q13416
Protocol: as §1

ORC5, O43913 = target: ORC5, O43913
Protocol: as §1

OXA1L, Q15070 = target: OXA1L, Q15070
Protocol: as §1

PPP1R2, P41236 = target: PPP1R2, P41236
Protocol: as §1

PTMA, P06454 = target: PTMA, P06454
Protocol: as §1

RGPD5, Q99666 = target: RGPD5, Q99666
Protocol: as §1

RPUSD3, Q6P087 = target: RPUSD3, Q6P087
Protocol: as §1

SMC3, Q9UQE7 = target: SMC3, Q9UQE7
Protocol: as §1

SRSF2, Q01130 = target: SRSF2, Q01130
Protocol: as §1

STMN1, P16949 = target: STMN1, P16949
Protocol: as §1

UQCRFS1, P47985 = target: UQCRFS1, P47985
Protocol: as §1

USP7, Q93009 = target: USP7, Q93009
Protocol: as §1

ZBTB11, O95625 = target: ZBTB11, O95625
Protocol: as §1

AAMP, Q13685 = target: AAMP, Q13685
Protocol: as §1

ABCF2, Q9UG63 = target: ABCF2, Q9UG63
Protocol: as §1

ALKBH5, Q6P6C2 = target: ALKBH5, Q6P6C2
Protocol: as §1

AP3S1, Q92572 = target: AP3S1, Q92572
Protocol: as §1

ARF4, P18085 = target: ARF4, P18085
Protocol: as §1

CDCA8, Q53HL2 = target: CDCA8, Q53HL2
Protocol: as §1

DHCR24, Q15392 = target: DHCR24, Q15392
Protocol: as §1

DHX9, Q08211 = target: DHX9, Q08211
Protocol: as §1

DIMT1, Q9UNQ2 = target: DIMT1, Q9UNQ2
Protocol: as §1

ECD, O95905 = target: ECD, O95905
Protocol: as §1

GNL3L, Q9NVN8 = target: GNL3L, Q9NVN8
Protocol: as §1

KPNA2, P52292 = target: KPNA2, P52292
Protocol: as §1

MRPS31, Q92665 = target: MRPS31, Q92665
Protocol: as §1

NOB1, Q9ULX3 = target: NOB1, Q9ULX3
Protocol: as §1

POLE, Q07864 = target: POLE, Q07864
Protocol: as §1

RAVER1, Q8IY67 = target: RAVER1, Q8IY67
Protocol: as §1

SCYL2, Q6P3W7 = target: SCYL2, Q6P3W7
Protocol: as §1

TRIM28, Q13263 = target: TRIM28, Q13263
Protocol: as §1

USP15, Q9Y4E8 = target: USP15, Q9Y4E8
Protocol: as §1

XAB2, Q9HCS7 = target: XAB2, Q9HCS7
Protocol: as §1

KSSALGKEVGRRVKE [IDI2-AS1]
PRISMA enrichment of interactor (log2) (A2M, P01023): 5.09
PRISMA enrichment of interactor (log2) (AAR2, Q9Y312): 5.61
PRISMA enrichment of interactor (log2) (ACSL3, O95573): 6.09
PRISMA enrichment of interactor (log2) (AFF3, P51826): 3.9
PRISMA enrichment of interactor (log2) (ALG1, Q9BT22): 7.95
PRISMA enrichment of interactor (log2) (CDC73, Q6P1J9): 5.84
PRISMA enrichment of interactor (log2) (CEBPZ, Q03701): 4.38
PRISMA enrichment of interactor (log2) (CYC1, P08574): 5.01
PRISMA enrichment of interactor (log2) (GRPEL1, Q9HAV7): 5.08
PRISMA enrichment of interactor (log2) (LYPLAL1, Q5VWZ2): 5.08
PRISMA enrichment of interactor (log2) (MTPAP, Q9NVV4): 7.73
PRISMA enrichment of interactor (log2) (NCL, P19338): 4.68
PRISMA enrichment of interactor (log2) (NEK7, Q8TDX7): 4.46
PRISMA enrichment of interactor (log2) (ORC2, Q13416): 4.25
PRISMA enrichment of interactor (log2) (ORC5, O43913): 6.14
PRISMA enrichment of interactor (log2) (OXA1L, Q15070): 4.55
PRISMA enrichment of interactor (log2) (PPP1R2, P41236): 4.39
PRISMA enrichment of interactor (log2) (PTMA, P06454): 6.12
PRISMA enrichment of interactor (log2) (RGPD5, Q99666): 5.83
PRISMA enrichment of interactor (log2) (RPUSD3, Q6P087): 4.24
PRISMA enrichment of interactor (log2) (SMC3, Q9UQE7): 4.8
PRISMA enrichment of interactor (log2) (SRSF2, Q01130): 5.07
PRISMA enrichment of interactor (log2) (STMN1, P16949): 4.39
PRISMA enrichment of interactor (log2) (UQCRFS1, P47985): 6.79
PRISMA enrichment of interactor (log2) (USP7, Q93009): 4.91
PRISMA enrichment of interactor (log2) (ZBTB11, O95625): 5.55

KTILSRSLAVKENRE [RP11-620J15.3]
PRISMA enrichment of interactor (log2) (AAMP, Q13685): 4.32
PRISMA enrichment of interactor (log2) (ABCF2, Q9UG63): 5.24
PRISMA enrichment of interactor (log2) (ALKBH5, Q6P6C2): 4.36
PRISMA enrichment of interactor (log2) (AP3S1, Q92572): 5.27
PRISMA enrichment of interactor (log2) (ARF4, P18085): 5.95
PRISMA enrichment of interactor (log2) (CDCA8, Q53HL2): 4.62
PRISMA enrichment of interactor (log2) (DHCR24, Q15392): 4.42
PRISMA enrichment of interactor (log2) (DHX9, Q08211): 5.24
PRISMA enrichment of interactor (log2) (DIMT1, Q9UNQ2): 5.32
PRISMA enrichment of interactor (log2) (ECD, O95905): 4.8
PRISMA enrichment of interactor (log2) (GNL3L, Q9NVN8): 5.9
PRISMA enrichment of interactor (log2) (KPNA2, P52292): 5.2
PRISMA enrichment of interactor (log2) (MRPS31, Q92665): 4.62
PRISMA enrichment of interactor (log2) (NOB1, Q9ULX3): 5.16
PRISMA enrichment of interactor (log2) (POLE, Q07864): 4.13
PRISMA enrichment of interactor (log2) (RAVER1, Q8IY67): 5.32
PRISMA enrichment of interactor (log2) (SCYL2, Q6P3W7): 5.49
PRISMA enrichment of interactor (log2) (TRIM28, Q13263): 4.51
PRISMA enrichment of interactor (log2) (USP15, Q9Y4E8): 5
PRISMA enrichment of interactor (log2) (XAB2, Q9HCS7): 4.87
